Data: the supplement of paper PMC10973195
± gives the standard deviation of the averaged measurements. Some of the results follow. Values are raw readings; no control value is given beside them.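 In this assay, LPS from bacteria induces microglia-mediated neuronal death in a neuron–microglia–astrocyte co-culture, a model of inflammatory neurodegeneration. Compounds were compared against same-plate DMSO vehicle wells, with the SYK inhibitor BAY61-3606 as reference neuroprotective control.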

Experiments:
[1] = tested on: rat primary cerebellar neuron-glia coculture; assay: microglia count (IB4+) per image field (cells per field); higher = more microglia; details: 1 µM, treatment time 3 days
[2] = tested on: rat primary cerebellar neuron-glia coculture; assay: median microglial FormFactor (circularity) per image (dimensionless (0-1)); higher = rounder, more ameboid microglia; details: 1 µM, treatment time 3 days

Structure (SMILES) | microglia count ([1]; LPS 0 ng/mL) | microglia count ([1]; LPS 100 ng/mL) | median microglial FormFactor ([2]; LPS 0 ng/mL) | median microglial FormFactor ([2]; LPS 100 ng/mL)
O=C(NC1CN2CCC1CC2)c1cc(Br)cc2nc[nH]c12 (centres undefined) | 195 ± 70 | 422 ± 98 | 0.539 ± 0.061 | 0.685 ± 0.07
CN/C(=N\S(=O)(=O)c1ccc(Cl)cc1)N1CC(c2ccccc2)C(c2ccc(Cl)cc2)=N1 (centres undefined) | 175 ± 59 | 430 ± 70 | 0.556 ± 0.089 | 0.668 ± 0.091
C=CCN(CC=C)CCc1c[nH]c2ccc(OC)cc12 | 164 ± 30 | 464 ± 86 | 0.551 ± 0.081 | 0.624 ± 0.056
Cc1cccc(NC(=O)N[C@@H]2N=C(c3ccccc3)c3ccccc3N(C)C2=O)c1 | 183 ± 57 | 414 ± 61 | 0.511 ± 0.11 | 0.689 ± 0.078
O=C1CCCC2[C@H]3CNC[C@H](C3)CN12 (some centres undefined) | 161 ± 31 | 479 ± 130 | 0.546 ± 0.093 | 0.616 ± 0.099
C[C@@H]1CN([C@H]2CC[C@](C#N)(c3ccc(F)cc3)CC2)CC[C@]1(C(=O)O)c1ccccc1 | 166 ± 54 | 457 ± 99 | 0.554 ± 0.091 | 0.675 ± 0.053
Clc1ccc2c(c1Cl)CNCC2 | 186 ± 24 | 451 ± 84 | 0.545 ± 0.1 | 0.665 ± 0.1
CCNC(=O)C[C@@H]1N=C(c2ccc(Cl)cc2)c2cc(OC)ccc2-n2c(C)nnc21 | 116 ± 41 | 146 ± 120 | 0.601 ± 0.044 | 0.624 ± 0.083
Cc1cccc([C@H](C)c2c[nH]cn2)c1C | 189 ± 48 | 463 ± 78 | 0.598 ± 0.078 | 0.651 ± 0.087
COc1ccc2c(c[n+](C)c3c4cc5c(cc4ccc23)OCO5)c1OC | 195 ± 130 | 468 ± 160 | 0.558 ± 0.097 | 0.609 ± 0.088
C[N+]1(C)[C@@H]2C[C@@H](OC(=O)[C@H](CO)c3ccccc3)C[C@H]1[C@@H]1O[C@@H]12 | 173 ± 63 | 444 ± 92 | 0.563 ± 0.11 | 0.652 ± 0.09
C[C@]12CC[C@H](O)C[C@H]1CC[C@@H]1[C@@H]2CC[C@]2(C)[C@@H](C3=CC(=O)OC3)CC[C@]12O | 170 ± 41 | 408 ± 78 | 0.539 ± 0.069 | 0.66 ± 0.087
C=C(C)[C@H]1Cc2c(ccc3c2O[C@@H]2COc4cc(OC)c(OC)cc4[C@@H]2C3=O)O1 | 270 ± 97 | 292 ± 83 | 0.594 ± 0.048 | 0.651 ± 0.045
Clc1ccc(OC[C@H]2CCN2)cn1 | 176 ± 92 | 438 ± 83 | 0.572 ± 0.072 | 0.646 ± 0.063
CN(C)C(=O)Oc1ccc2cc(Br)ccc2c1Br | 150 ± 39 | 471 ± 120 | 0.554 ± 0.072 | 0.63 ± 0.054
Cn1c(CCCC(=O)O)nc2cc(N(CCCl)CCCl)ccc21 | 191 ± 75 | 399 ± 76 | 0.511 ± 0.12 | 0.653 ± 0.08
O=C1NC(=O)N(c2cccc3ccccc23)C(=O)/C1=C\c1c[nH]c2ccccc12 | 193 ± 60 | 405 ± 99 | 0.536 ± 0.055 | 0.729 ± 0.058
CCOc1ccccc1N1CCN(Cc2cccc3ccccc23)CC1 | 169 ± 32 | 463 ± 82 | 0.552 ± 0.1 | 0.644 ± 0.05
N#Cc1nn(-c2c(Cl)cc(C(F)(F)F)cc2Cl)c(N)c1[S+]([O-])C(F)(F)F (centres undefined) | 161 ± 25 | 408 ± 100 | 0.577 ± 0.068 | 0.723 ± 0.08
O=C(c1ccccc1)C(F)(F)F | 167 ± 33 | 438 ± 71 | 0.551 ± 0.087 | 0.657 ± 0.049
OC1(c2ccc(Cl)cc2)c2ccccc2C2=NCCN21 (centres undefined) | 151 ± 24 | 441 ± 84 | 0.574 ± 0.063 | 0.674 ± 0.1
C[N+]1(C)CCO[C@@](O)(c2ccc(-c3ccc([C@@]4(O)C[N+](C)(C)CCO4)cc3)cc2)C1 | 176 ± 63 | 429 ± 100 | 0.533 ± 0.093 | 0.671 ± 0.061
O=C(O[C@H]1C[N+]2(CCCOc3ccccc3)CCC1CC2)C(O)(c1cccs1)c1cccs1 | 159 ± 48 | 438 ± 85 | 0.56 ± 0.07 | 0.662 ± 0.062
NCCc1cc(I)c(Oc2ccc(O)c(I)c2)c(I)c1 | 148 ± 39 | 424 ± 79 | 0.604 ± 0.091 | 0.691 ± 0.073
O=[N+]([O-])/N=C1\NCCN1Cc1ccc(Cl)nc1 | 183 ± 53 | 438 ± 89 | 0.528 ± 0.12 | 0.676 ± 0.061
c1ccc(CCCN2CCN(CCOC(c3ccccc3)c3ccccc3)CC2)cc1 | 213 ± 49 | 401 ± 91 | 0.427 ± 0.066 | 0.716 ± 0.04

Exported as a markdown table: 2 of the compounds above

| Structure (SMILES) | microglia count ([1]; LPS 0 ng/mL) | microglia count ([1]; LPS 100 ng/mL) | median microglial FormFactor ([2]; LPS 0 ng/mL) | median microglial FormFactor ([2]; LPS 100 ng/mL) |
| --- | --- | --- | --- | --- |
| CCNC(=O)C[C@@H]1N=C(c2ccc(Cl)cc2)c2cc(OC)ccc2-n2c(C)nnc21 | 116 ± 41 | 146 ± 120 | 0.601 ± 0.044 | 0.624 ± 0.083 |
| Cc1cccc([C@H](C)c2c[nH]cn2)c1C | 189 ± 48 | 463 ± 78 | 0.598 ± 0.078 | 0.651 ± 0.087 |
